No constants are given. Whether binding was seen depends on the method and setting. Binding seen in cells or lysates may run through a third protein. Some entries that bind do so weakly or less than the wild type.
Target: IκB-α (rat (endogenous in RVLM tissue)) (UniProt Q63746)
Test: co-IP; RVLM tissue lysates of four groups (WKY or SHR, each with AAV-GFP or AAV-Arrb1); legend: IP by anti-IκBα antibody, Western blot by anti-β-arrestin1 antibody; Protein A/G plus agarose beads, antibody overnight at 4°C

The chains behind the UniProt entries cited, without tags or fusion partners.
UniProt Q63746: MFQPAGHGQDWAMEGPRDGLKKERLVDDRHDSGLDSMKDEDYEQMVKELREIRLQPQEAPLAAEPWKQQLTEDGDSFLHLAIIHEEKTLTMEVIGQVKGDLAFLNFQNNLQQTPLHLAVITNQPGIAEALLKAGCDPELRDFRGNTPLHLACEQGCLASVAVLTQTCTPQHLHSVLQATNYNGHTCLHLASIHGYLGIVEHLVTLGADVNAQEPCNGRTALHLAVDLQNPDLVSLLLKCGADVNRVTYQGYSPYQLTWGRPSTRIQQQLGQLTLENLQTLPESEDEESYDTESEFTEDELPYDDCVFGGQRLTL
UniProt P29066: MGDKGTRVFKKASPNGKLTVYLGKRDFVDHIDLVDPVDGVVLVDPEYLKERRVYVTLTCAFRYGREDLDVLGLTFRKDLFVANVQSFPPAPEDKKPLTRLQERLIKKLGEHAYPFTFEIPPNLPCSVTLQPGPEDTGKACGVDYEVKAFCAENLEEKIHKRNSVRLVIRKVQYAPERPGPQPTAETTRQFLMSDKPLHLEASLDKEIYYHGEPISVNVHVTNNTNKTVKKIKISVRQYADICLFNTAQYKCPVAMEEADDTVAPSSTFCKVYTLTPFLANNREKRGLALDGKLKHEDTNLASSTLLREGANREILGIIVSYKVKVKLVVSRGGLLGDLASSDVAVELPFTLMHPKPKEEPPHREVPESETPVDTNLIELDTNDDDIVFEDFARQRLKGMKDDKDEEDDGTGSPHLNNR

β-arrestin1 (from UniProt P29066 1-418)
binding: binds
